# The other results are listed elsewhere or left out. Further columns of the screen follow, without active or inactive calls. The list favours compounds with an active or inconclusive main result. Potencies come from curve fits of mixed quality, noted in brackets.
# Assay: qHTS Assay to Find Inhibitors of Chronic Active B-Cell Receptor Signaling
# Conditions: ABC-DLBCL IkBa-CBG/CBR reporter, luminescence ratio (green luciferase fused to IkBa over red control in TMD8 lymphoma cells), 4 h
# In short: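 TMD8 human ABC-DLBCL cells with doxycycline-inducible IκBα–green luciferase fusion and unfused red luciferase, in 0.5% FBS medium; compounds up to 46 uM, 4 h at 37C. Green/red luminescence ratio, filter-overlap corrected, fitted to concentration-response curves.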
# [1] = measured here: IkBa-CBG green luminescence
# [2] = measured here: CBR red luminescence, cell number
Compound,AC50 [1],AC50 [2]
COc1ccc(CCN2CCCn3c2nc2c3c(=O)[nH]c(=O)n2C)cc1OC,"8.91 µM [falling, partial curve, poor fit]",–
Cc1ccc(CNc2ccc(O)cc2)cc1,–,"9.2 µM [rising, single point]"
C/C(=N\OCc1nc2ccccc2c(=O)n1/N=C/c1cc([N+](=O)[O-])ccc1O)c1ccccc1,–,"10 µM [falling, partial curve, poor fit]"
COc1ccc(NC(=O)c2ccc3c(=O)n(CC4CCCO4)c(=S)[nH]c3c2)c(OC)c1 (configuration not stated),–,"4.47 µM [falling, partial curve, poor fit]"
CCOc1ccc(/C=N/Nc2ccccn2)cc1OC,–,"4.47 µM [rising, full curve, poor fit]"
CCOc1ccc(OCC)c(NC(=O)CSCCc2ccccn2)c1,–,"11.2 µM [falling, partial curve, poor fit]"
CN(C)c1ccc(C(=O)N/N=C/c2ccccn2)cc1,–,"35.5 µM [falling, single point]"
CCOC(=O)N1CCN(C(=O)c2ccccc2-c2ccccc2)CC1,–,"6.51 µM [falling, single point]"
CC[C@@]12C(=O)N(c3ccccc3)C(=O)N1[C@H](c1ccc(OC)cc1)[C@@H]1C(=O)N(C(C)(C)C)C(=O)[C@@H]12,–,"0.0103 µM [rising, full curve, poor fit]"
CCOc1ccc(CNC(=O)CCCc2cn(C)c3ccccc23)cc1,–,"11.2 µM [falling, partial curve]"
Cc1cc(NC(=O)c2cnn3cccnc23)nn1CC(=O)Nc1cccnc1,–,"29.1 µM [falling, single point]"
CC1(C(=O)NCCCNc2ncc(C(F)(F)F)cc2Cl)C=CCN1C(=O)c1ccccc1 (configuration not stated),"16.4 µM [falling, partial curve, poor fit]",–
CN1CCN(C(=O)C2CCN(S(=O)(=O)c3cnc[nH]3)CC2)CC1,–,"23.1 µM [rising, single point]"
Cc1cnc(NC(=O)C2CC=CCC2)s1 (configuration not stated),–,"22.4 µM [falling, single point]"
O=C(NNC(=O)c1cc(-c2ccncc2)nc2ccccc12)c1cccc(Cl)c1,–,"16.4 µM [falling, partial curve, poor fit]"
Cc1ccc2nc3n(c(=O)c2c1)-c1ccc(Cl)cc1C(=O)NC3Cc1ccccc1 (configuration not stated),–,"8.2 µM [falling, partial curve]"
COc1ccc(OC)c(CN(CCCN2CCOCC2)C(=O)Nc2ccccc2)c1,–,"16.4 µM [rising, partial curve, poor fit]"

# Single entries from the list:
# CN(C)c1ccc(C(=O)N/N=C/c2ccccn2)cc1 – AC50 [2]: 35.5 µM [falling, single point]
# CC1(C(=O)NCCCNc2ncc(C(F)(F)F)cc2Cl)C=CCN1C(=O)c1ccccc1 (configuration not stated) – AC50 [1]: 16.4 µM [falling, partial curve, poor fit]

# From PubChem BioAssay AID493014 (National Center for Advancing Translational Sciences (NCATS), 2011)
